In PubChem BioAssay AID330 (DTP/NCI, 2004):
The list does not hold the whole screen: it is rich in T/C values a quarter to a half above the control, in often repeated tests (any T/C) and in doses without a T/C. Other doses and runs of a compound stand elsewhere. T/C gives the treated animals as a percentage of the vehicle group. Some doses have a count of surviving animals in place of a T/C: the source holds a T/C of zero for them, seemingly a mark for toxic or unscored doses. Some doses without a T/C left all or most animals alive at the check, yet need not have been tolerated: the source hardly ever lists a survival T/C far under the control, and the zero likely stands for such cases as well. Counts of survivors are from the toxicity check (mostly the fifth day) where no day follows; animals may have died later. Schedules are NCI's codes, read here as Q, the interval in days (D) or hours (H), X, the number of doses. Some schedule codes hold Z or #, which are not explained here. For survival time, this PubChem deposit counts one and a half times the control or more as active, and values a quarter to a half above the control carry no call in these data; other NCI protocols may use other cut-offs.

Tested on: P388 leukemia ip, CD2F1 mice, survival T/C
Test: NCI In Vivo Anticancer Drug Screen. Data for tumor model P388 Leukemia (intraperitoneal) in CD2F1 (CDF1) mice
Settings: T/C endpoint: median survival time, higher T/C = longer survival
[1] = dose: 120.0 mg/kg/injection, schedule: Q01DX005 (ip), vehicle: saline with Tween-80
[2] = dose: 240.0 mg/kg/injection, schedule: Q01DX005 (ip), vehicle: saline with Tween-80
[3] = dose: 100.0 mg/kg/injection, schedule: Q01DX009 (ip), vehicle: saline with Tween-80
[4] = dose: 200.0 mg/kg/injection, schedule: Q01DX009 (ip), vehicle: saline with Tween-80

C1=C(c2ccccc2)C(=Nc2ccccc2)SC1=Nc1ccccc1
T/C (dose: 3.75 mg/kg/injection, schedule: Q01DX005 (ip), vehicle: saline with Tween-80): 140 % of control | T/C (dose: 7.5 mg/kg/injection, schedule: Q01DX005 (ip), vehicle: saline with Tween-80): 130 % of control | survivor count (dose: 15.0 mg/kg/injection, schedule: Q01DX005 (ip), vehicle: saline with Tween-80): 4 of 6 | survivor count (dose: 30.0 mg/kg/injection, schedule: Q01DX005 (ip), vehicle: saline with Tween-80): 0 of 6 | survivor count (dose: 60.0 mg/kg/injection, schedule: Q01DX005 (ip), vehicle: saline with Tween-80): 0 of 6 | survivor count [1]: 0 of 6 | survivor count [2]: 0 of 6

COc1ccc2c(c1)[C@@]13CCCCC1[C@@H](C2)N(CC1CC1)CC3 (stereo partly drawn)
survivor count (dose: 400.0 mg/kg/injection, schedule: Q01DX001 (ip), vehicle: Klucel (hydroxypropylcellulose) (HPC)): 3 of 6

COc1ccc2c3c1OC1C(O)C=CC4C(C2)N(C)CCC341 (stereo not drawn)
survivor count (dose: 25.0 mg/kg/injection, schedule: Q01DX009 (ip), vehicle: saline with Tween-80): 0 of 6 | survivor count (dose: 50.0 mg/kg/injection, schedule: Q01DX009 (ip), vehicle: saline with Tween-80): 3 of 6 | survivor count [3]: 0 of 6 | survivor count [4]: 0 of 6

CCCCOc1cccc2c(NCCCCCCCCNc3c4ccccc4nc4c(OCCCC)cccc34)c3ccccc3nc12
survivor count (dose: 20.0 mg/kg/injection, schedule: Q## X009 (ip), vehicle: lactic acid): 1 of 6

CCCCCCCCCCC(OC(C)=O)C1CCC(C2CCC(C(O)CCCCCCCCCCCCC3C=C(C)OC3=O)O2)O1 (stereo not drawn)
T/C (dose: 0.5 mg/kg/injection, schedule: Q01DX005 (ip), vehicle: distilled water + Tween-80): 135 % of control | T/C (dose: 1.0 mg/kg/injection, schedule: Q01DX005 (ip), vehicle: distilled water + Tween-80): 138 % of control | T/C (dose: 1.0 mg/kg/injection, schedule: Q01DX005 (ip), vehicle: water): 133 % of control | survivor count (dose: 2.0 mg/kg/injection, schedule: Q01DX005 (ip), vehicle: distilled water + Tween-80): 4 of 5 | T/C (dose: 2.0 mg/kg/injection, schedule: Q01DX005 (ip), vehicle: water): 135 % of control | survivor count (dose: 4.0 mg/kg/injection, schedule: Q01DX005 (ip), vehicle: distilled water + Tween-80): 0 of 5

Cc1cc2[nH]c3c(C#N)c(OC(=O)N(C)C)c(C)c(=O)n3c2cc1C
survivor count [1]: 6 of 6 | survivor count [2]: 6 of 6

COC1/C=C/OC2(C)Oc3c(C)c(O)c4c(O)c(c(/C=N/N5C(C)CN(Cc6cccc(C#N)c6)CC5C)c(O)c4c3C2=O)NC(=O)/C(C)=C\C=C\C(C)C(O)C(C)C(O)C(C)C(OC(C)=O)C1C (stereo not drawn)
survivor count [3]: 5 of 6 | survivor count [4]: 2 of 6

NC(CC(=O)CCl)C(=O)O (stereo not drawn)
T/C (dose: 6.25 mg/kg/injection, schedule: Q04DX003 (ip), vehicle: saline): 149 % of control | T/C (dose: 12.5 mg/kg/injection, schedule: Q04DX003 (ip), vehicle: saline, evaluated on day 5): 142 % of control | T/C (dose: 12.5 mg/kg/injection, schedule: Q04DX003 (ip), vehicle: saline, evaluated on day 30): 142 % of control | survivor count (dose: 50.0 mg/kg/injection, schedule: Q04DX003 (ip), vehicle: saline): 3 of 6 | survivor count (dose: 100.0 mg/kg/injection, schedule: Q04DX003 (ip), vehicle: saline with Tween-80): 1 of 6 | survivor count (dose: 200.0 mg/kg/injection, schedule: Q04DX003 (ip), vehicle: saline with Tween-80): 0 of 6 | survivor count (dose: 400.0 mg/kg/injection, schedule: Q04DX003 (ip), vehicle: saline with Tween-80): 0 of 6

CC(C)CS(=O)(=O)OCCCCOS(=O)(=O)CC(C)C
survivor count (dose: 200.0 mg/kg/injection, schedule: Q01DX005 (ip), vehicle: Klucel (hydroxypropylcellulose) (HPC)): 5 of 5

O=C(Nc1ccc(CC2=NCCCN2)cc1)c1ccc(C(=O)Nc2ccc(CC3=NCCCN3)cc2)cc1
survivor count (dose: 3.13 mg/kg/injection, schedule: Q01DX005 (ip), vehicle: saline with Tween-80): 0 of 6 | survivor count (dose: 6.25 mg/kg/injection, schedule: Q01DX005 (ip), vehicle: saline with Tween-80): 0 of 6 | survivor count (dose: 12.5 mg/kg/injection, schedule: Q01DX005 (ip), vehicle: saline with Tween-80): 0 of 6 | survivor count (dose: 25.0 mg/kg/injection, schedule: Q01DX005 (ip), vehicle: saline with Tween-80): 0 of 6 | survivor count (dose: 50.0 mg/kg/injection, schedule: Q01DX005 (ip), vehicle: saline with Tween-80): 0 of 6 | survivor count (dose: 100.0 mg/kg/injection, schedule: Q01DX005 (ip), vehicle: saline with Tween-80): 0 of 6 | survivor count (dose: 200.0 mg/kg/injection, schedule: Q01DX005 (ip), vehicle: saline with Tween-80): 0 of 6
